Results taken from paper PMC11941520.
No constants are given. Whether binding was seen depends on the method and setting. Binding seen in cells or lysates may run through a third protein. Some binding calls cover weakened binding; strength is not graded here.

Target: T1, Dihydrolipoamide S-acetyltransferase (DLAT), mouse, in ovaries (mouse (endogenous in mouse ovaries)) (UniProt Q8BMF4)
T1 sequence: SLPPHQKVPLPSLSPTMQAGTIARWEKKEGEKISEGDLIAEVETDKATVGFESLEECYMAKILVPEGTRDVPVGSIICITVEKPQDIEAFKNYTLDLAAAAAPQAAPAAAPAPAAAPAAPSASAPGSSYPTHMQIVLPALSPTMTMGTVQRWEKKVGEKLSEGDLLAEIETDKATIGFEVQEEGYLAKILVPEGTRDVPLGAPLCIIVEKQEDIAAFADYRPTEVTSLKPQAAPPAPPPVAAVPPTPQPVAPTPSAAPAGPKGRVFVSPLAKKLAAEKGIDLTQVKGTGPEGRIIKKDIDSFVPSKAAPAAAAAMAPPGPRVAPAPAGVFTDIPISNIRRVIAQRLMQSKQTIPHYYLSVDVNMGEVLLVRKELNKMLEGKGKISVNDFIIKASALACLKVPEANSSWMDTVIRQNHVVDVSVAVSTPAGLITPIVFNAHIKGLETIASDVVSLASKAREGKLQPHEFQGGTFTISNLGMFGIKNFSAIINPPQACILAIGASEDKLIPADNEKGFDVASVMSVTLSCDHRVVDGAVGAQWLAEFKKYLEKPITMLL
Assay: co-IP; mice ovaries; DLAT antibody pull-down with rProtein A/G Magnetic IP/Co-IP Kit, Western blot

binding: binds
B1: CASP3 protein, mouse, in ovaries (protein, UniProt P70677 1-277)
chain: MENNKTSVDSKSINNFEVKTIHGSKSVDSGIYLDSSYKMDYPEMGICIIINNKNFHKSTGMSSRSGTDVDAANLRETFMGLKYQVRNKNDLTREDILELMDSVSKEDHSKRSSFVCVILSHGDEGVIYGTNGPVELKKLTSFFRGDYCRSLTGKPKLFIIQACRGTELDCGIETDSGTDEEMACQKIPVEADFLYAYSTAPGYYSWRNSKDGSWFIQSLCSMLKLYAHKLEFMHILTRVNRKVATEFESFSLDSTFHAKKQIPCIVSMLTKELYFYH
